Source: the supplement of paper PMC10849652
The list shows a part of the results.

Chains of the proteins cited; added tags and fusions are not shown. Lines headed by an entry give the natural chain unless they say otherwise; changes in a name come on top.
UniProt Q9Y6A1: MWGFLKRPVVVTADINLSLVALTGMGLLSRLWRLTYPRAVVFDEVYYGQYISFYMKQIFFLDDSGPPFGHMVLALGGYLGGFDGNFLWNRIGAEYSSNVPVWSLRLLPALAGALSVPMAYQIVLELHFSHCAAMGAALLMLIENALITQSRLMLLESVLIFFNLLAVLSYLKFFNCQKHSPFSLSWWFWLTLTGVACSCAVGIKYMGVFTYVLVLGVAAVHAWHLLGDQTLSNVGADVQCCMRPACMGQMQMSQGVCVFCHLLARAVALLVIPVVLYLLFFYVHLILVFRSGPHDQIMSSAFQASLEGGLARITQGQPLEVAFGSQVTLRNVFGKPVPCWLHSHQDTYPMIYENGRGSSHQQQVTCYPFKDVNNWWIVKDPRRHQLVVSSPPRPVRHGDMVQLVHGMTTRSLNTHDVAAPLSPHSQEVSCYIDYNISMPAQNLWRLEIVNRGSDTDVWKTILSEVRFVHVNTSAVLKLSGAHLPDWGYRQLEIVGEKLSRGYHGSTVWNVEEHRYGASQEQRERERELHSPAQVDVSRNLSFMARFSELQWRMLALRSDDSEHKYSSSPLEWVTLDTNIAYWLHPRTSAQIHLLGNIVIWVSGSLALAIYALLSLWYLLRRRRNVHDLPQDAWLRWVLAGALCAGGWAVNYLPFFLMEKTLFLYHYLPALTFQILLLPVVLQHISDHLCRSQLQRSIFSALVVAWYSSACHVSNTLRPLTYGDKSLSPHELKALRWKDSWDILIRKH
UniProt Q8TD55: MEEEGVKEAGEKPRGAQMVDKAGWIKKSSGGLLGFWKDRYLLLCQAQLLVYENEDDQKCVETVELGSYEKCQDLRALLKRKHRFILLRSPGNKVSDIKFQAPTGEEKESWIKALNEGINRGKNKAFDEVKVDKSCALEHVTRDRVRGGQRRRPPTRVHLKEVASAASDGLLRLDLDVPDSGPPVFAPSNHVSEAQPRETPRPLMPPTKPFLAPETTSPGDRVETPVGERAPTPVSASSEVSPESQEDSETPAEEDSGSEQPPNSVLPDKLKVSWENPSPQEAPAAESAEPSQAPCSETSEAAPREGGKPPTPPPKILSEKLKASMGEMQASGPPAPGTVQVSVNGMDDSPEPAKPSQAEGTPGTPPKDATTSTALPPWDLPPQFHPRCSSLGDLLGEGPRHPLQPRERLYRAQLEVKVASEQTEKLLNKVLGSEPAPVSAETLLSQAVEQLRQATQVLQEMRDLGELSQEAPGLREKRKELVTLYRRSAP
UniProt Q13427: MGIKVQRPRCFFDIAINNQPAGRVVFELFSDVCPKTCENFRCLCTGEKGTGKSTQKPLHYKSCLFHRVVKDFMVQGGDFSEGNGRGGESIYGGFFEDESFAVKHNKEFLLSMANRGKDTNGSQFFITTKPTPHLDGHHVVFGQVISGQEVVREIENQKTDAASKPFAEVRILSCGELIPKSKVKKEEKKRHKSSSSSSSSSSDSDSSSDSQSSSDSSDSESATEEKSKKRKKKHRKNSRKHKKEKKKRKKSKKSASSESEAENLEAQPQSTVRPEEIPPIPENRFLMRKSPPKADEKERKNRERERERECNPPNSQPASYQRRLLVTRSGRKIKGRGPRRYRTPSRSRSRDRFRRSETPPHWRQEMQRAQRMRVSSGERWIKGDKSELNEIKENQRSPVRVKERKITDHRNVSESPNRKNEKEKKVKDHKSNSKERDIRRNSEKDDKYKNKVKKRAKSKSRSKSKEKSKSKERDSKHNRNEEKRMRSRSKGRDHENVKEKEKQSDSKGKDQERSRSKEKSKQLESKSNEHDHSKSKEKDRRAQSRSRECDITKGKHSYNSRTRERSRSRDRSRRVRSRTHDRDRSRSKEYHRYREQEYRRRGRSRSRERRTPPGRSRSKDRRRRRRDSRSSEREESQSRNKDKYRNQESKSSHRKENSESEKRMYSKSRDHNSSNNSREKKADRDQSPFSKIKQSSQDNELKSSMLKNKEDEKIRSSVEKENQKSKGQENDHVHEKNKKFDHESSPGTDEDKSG
UniProt Q15126: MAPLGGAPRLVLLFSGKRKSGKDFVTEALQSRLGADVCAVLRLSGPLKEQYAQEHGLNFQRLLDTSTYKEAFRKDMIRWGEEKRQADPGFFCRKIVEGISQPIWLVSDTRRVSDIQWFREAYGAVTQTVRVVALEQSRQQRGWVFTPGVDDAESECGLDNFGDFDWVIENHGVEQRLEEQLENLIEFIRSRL
UniProt O43157, whole entry, looked up: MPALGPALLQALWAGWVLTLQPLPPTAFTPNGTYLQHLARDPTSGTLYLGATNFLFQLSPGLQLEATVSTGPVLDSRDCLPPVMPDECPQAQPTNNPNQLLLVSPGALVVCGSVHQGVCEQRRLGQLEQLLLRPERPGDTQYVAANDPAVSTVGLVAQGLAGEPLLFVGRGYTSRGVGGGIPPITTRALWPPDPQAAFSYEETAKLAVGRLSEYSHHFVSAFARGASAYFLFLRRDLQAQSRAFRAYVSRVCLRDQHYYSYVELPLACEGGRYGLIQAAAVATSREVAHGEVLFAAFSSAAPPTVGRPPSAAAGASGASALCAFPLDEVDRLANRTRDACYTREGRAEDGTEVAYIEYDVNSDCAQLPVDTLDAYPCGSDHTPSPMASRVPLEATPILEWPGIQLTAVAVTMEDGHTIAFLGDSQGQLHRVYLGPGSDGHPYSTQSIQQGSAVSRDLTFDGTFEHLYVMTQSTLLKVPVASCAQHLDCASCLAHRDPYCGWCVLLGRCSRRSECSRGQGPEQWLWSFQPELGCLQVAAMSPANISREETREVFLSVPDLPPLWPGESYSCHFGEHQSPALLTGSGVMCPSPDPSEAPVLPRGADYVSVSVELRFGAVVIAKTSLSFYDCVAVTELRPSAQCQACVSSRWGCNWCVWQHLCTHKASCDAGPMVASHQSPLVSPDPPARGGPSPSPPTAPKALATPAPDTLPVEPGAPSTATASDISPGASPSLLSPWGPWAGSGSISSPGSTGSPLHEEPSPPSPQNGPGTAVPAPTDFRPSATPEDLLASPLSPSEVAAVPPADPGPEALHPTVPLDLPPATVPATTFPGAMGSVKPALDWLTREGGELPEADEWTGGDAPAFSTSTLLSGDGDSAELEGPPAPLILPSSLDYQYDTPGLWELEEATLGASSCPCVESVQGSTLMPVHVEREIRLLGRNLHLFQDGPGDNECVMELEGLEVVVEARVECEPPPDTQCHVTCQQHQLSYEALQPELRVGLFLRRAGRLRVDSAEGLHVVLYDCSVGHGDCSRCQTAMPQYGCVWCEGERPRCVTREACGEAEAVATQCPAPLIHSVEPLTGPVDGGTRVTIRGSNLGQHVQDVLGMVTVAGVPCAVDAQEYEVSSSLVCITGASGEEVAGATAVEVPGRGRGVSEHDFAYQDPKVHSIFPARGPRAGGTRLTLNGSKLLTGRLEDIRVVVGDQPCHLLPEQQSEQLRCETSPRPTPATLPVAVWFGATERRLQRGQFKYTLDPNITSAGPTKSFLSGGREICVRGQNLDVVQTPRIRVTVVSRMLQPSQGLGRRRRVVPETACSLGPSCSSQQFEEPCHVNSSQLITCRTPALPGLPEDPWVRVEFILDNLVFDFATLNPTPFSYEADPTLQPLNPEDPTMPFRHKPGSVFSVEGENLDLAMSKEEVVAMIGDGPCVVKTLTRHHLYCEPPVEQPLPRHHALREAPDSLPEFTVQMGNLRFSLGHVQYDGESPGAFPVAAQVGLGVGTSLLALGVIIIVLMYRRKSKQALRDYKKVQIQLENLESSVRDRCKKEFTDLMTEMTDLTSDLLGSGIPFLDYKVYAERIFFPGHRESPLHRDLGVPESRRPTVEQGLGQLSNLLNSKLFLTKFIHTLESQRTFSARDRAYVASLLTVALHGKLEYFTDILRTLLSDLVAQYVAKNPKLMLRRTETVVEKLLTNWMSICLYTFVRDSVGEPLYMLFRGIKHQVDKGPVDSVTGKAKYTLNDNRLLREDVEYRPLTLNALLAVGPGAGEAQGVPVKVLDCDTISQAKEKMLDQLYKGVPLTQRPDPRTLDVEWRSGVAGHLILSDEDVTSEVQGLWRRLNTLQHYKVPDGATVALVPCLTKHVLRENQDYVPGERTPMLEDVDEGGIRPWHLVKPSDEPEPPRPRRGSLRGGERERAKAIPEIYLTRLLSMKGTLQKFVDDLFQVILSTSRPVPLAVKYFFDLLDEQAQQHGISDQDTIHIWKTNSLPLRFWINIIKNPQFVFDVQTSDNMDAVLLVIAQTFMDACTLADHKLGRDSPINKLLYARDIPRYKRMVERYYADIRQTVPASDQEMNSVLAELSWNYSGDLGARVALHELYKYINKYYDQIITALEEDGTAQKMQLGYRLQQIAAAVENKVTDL
UniProt Q9NRY6: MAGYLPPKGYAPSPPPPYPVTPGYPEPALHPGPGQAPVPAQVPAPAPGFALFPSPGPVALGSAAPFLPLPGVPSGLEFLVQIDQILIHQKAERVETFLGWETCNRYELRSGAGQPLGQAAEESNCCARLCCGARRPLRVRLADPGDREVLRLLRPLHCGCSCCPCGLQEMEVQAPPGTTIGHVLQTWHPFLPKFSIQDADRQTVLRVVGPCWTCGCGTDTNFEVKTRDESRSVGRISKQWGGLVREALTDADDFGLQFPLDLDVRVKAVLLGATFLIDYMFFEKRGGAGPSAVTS
UniProt Q8NBT0: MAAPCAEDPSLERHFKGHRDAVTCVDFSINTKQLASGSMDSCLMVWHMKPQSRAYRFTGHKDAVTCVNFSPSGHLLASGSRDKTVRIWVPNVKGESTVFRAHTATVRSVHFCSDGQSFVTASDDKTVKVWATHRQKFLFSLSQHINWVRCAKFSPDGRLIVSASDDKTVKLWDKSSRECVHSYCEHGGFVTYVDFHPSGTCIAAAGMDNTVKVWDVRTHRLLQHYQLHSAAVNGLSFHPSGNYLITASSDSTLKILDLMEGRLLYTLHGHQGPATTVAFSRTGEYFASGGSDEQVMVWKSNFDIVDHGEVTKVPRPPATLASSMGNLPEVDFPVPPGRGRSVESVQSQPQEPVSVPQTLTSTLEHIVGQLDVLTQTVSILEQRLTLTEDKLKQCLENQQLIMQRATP

How the values were obtained:
Assay in all cases: log2 fold change, soluble protein after heating vs DMSO (PISA); higher = thermal stabilisation; K562 cells, 10 uM, 30 min; active = over 0.2 and 3.5 SD of the protein, either way, in both replicates (recomputed)
[1] = compound: CC1=NC(=CC=C1)C2=C(N=C(N2)C(C)(C)C)C3=CC4=NC=CN=C4C=C3
Procedure, shortened: (§1)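 Soluble protein was defined as the supernatant after 21,000xg for 90 min. It came from K562 cells at 2×10^6 cells/mL given 10 μM compound for 30 min, heated in aliquots for 3 min across 48°C-58°C, pooled, and extracted in PBS with 0.5% NP-40 at 4°C, and was quantified by TMTpro 16plex LC-MS/MS with equalised channel sums. Thermal stability against control samples, from duplicates, is reported as log2 fold change.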

Nexturastat A = compound: CCCCN(Cc1ccc(C(=O)NO)cc1)C(=O)Nc1ccccc1 [Nexturastat A]
Procedure, shortened: as §1

vemurafenib = compound: CCCS(=O)(=O)Nc1ccc(F)c(C(=O)c2c[nH]c3ncc(-c4ccc(Cl)cc4)cc23)c1F [vemurafenib]
Procedure, shortened: as §1

[2] = compound: CCCc1cc(C)[nH]c(=O)c1CNC(=O)c1cc(-c2ccnc(N3CCN(C)CC3)c2)cc2c1cnn2C(C)C
Procedure, shortened: as §1

givinostat = compound: CCN(CC)Cc1ccc2cc(COC(=O)Nc3ccc(C(=O)NO)cc3)ccc2c1 [givinostat]
Procedure, shortened: as §1

[3] = compound: CC1=C(C=C(C=C1)NC(=O)C2=CC(=CC=C2)N(C)C)NC(=O)C3=CC=C(C=C3)O
Procedure, shortened: as §1

[4] = compound: CC1=CC=C(C=C1)SC2=C3C=C(SC3=CN=C2)C(=O)N
Procedure, shortened: as §1

[5] = compound: CCCS(=O)(=O)Nc1ccc(F)c(C(=O)c2c[nH]c3ncc(Cl)cc23)c1F
Procedure, shortened: as §1

barasertib = compound: CCN(CCCOc1ccc2c(Nc3cc(CC(=O)Nc4cccc(F)c4)[nH]n3)ncnc2c1)CCOP(=O)(O)O [barasertib]
Procedure, shortened: as §1

[6] = compound: CC1=C(C=C(C=C1)NC(=O)C2=CC(=CC=C2)C(C)(C)C#N)NC3=CC4=C(C=C3)N=CN(C4=O)C
Procedure, shortened: as §1

Measured: log2 fold change

POMT1 (UniProt Q9Y6A1)
inactive: [1] -0.105 | Nexturastat A 0.113 | vemurafenib -0.034 | [2] 0.021 | givinostat 0.032

PLEKHO2 (UniProt Q8TD55)
inactive: [3] -0.056 | [4] 0.106 | [1] 0.052 | vemurafenib 0.063 | [5] -0.078 | [2] -0.007 | givinostat 0.071 | barasertib 0.006

PPIG (UniProt Q13427)
inactive: [3] 0.011 | [4] 0.352 | [1] 0.027 | [5] -0.152 | [2] 0.025 | barasertib 0.288

PMVK (UniProt Q15126)
inactive: [6] 0.006 | Nexturastat A 0.085 | vemurafenib -0.041 | [2] 0.016 | givinostat -0.068 | barasertib 0.014

PLS3 (UniProt H7C4N2)
inactive: [6] -0.09 | [1] -0.127 | Nexturastat A 0.065

PLXNB1 (UniProt O43157)
inactive: [6] 0.057 | Nexturastat A -0.084

Reprinted at random: 2 records from the list
PLEKHO2 (UniProt Q8TD55)
inactive: [3] -0.056 | [4] 0.106 | [1] 0.052 | vemurafenib 0.063 | [5] -0.078 | [2] -0.007 | givinostat 0.071 | barasertib 0.006

PLS3 (UniProt H7C4N2)
inactive: [6] -0.09 | [1] -0.127 | Nexturastat A 0.065

(cont.)

PLSCR3 (UniProt Q9NRY6)
inactive: givinostat 0.011

POLR2J (UniProt P52435)
inactive: Nexturastat A -0.002 | [2] 0.037 | givinostat 0.053 | barasertib -0.032

POC1A (UniProt Q8NBT0)
inactive: [1] -0.007 | vemurafenib -0.086 | [2] 0.084 | barasertib -0.067
